Strings that start with PEPTIDE1 are HELM notation: dots part the residues, brackets hold end groups and non-standard residues.
Experiment: general procedure: Fmoc solid-phase peptide synthesis; Novasyn TGR resin (substitution 0.25 mmol g^-1); HBTU/HOBt/DIPEA; COMU/DIPEA for Fmoc-(S)-2-(4'-pentenyl)alanine
Conditions: whole synthesis, final yield, scale of the general procedure 25 μmol of resin-bound peptide (ring-closing metathesis)

PEPTIDE1{[ac].N.S.G.L.S.F.E.E.L.Y.R.N.A.Y.T.M.V.L.H.K.[am]}$$$$V2.0
isolated yield: 25%

From paper PMC4388676 (PLoS ONE, 2015)
